PubChem BioAssay AID504786, Drosophila RNAi Screening Center, 2011
The screen tested about 21,000 reagents; this is an unselected part of those that have a named target and a result. 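Primary screen; positive scores mean lost reporter signal, so the sign may be inverted from the usual convention.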 A plus sign joins genes that one reagent is predicted to hit. Reagent sequences are not shown.

Assay: 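Fly genes required for HIF-dependent transcription when hypoxia is mimicked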 (primary screen)
Cell system: Drosophila S2 cells with a stable HIF luciferase reporter
Reagents: long dsRNA against Drosophila genes, about 0.2 µg dsRNA per well of a 384-well plate
Timing: three days of knock-down, then 20 h of DFO before reading
Conditions: desferrioxamine (DFO) at 100 µM, an iron chelator that mimics hypoxia, for 20 h
Measured: 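HIF reporter luminescence in cells given 100 µM DFO for 20 h, using the mouse ldh-a hypoxia-response element, scored as per-plate z-scores; higher means greater loss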
Reading the numbers: z-score: higher = stronger loss of HIF reporter signal

CG8229 + CG33199 [DRSC05134] → z-score, replicate 1: 0.8; z-score, replicate 2: 1
Hsl [DRSC06028] → z-score, replicate 1: -0.1; z-score, replicate 2: -0.1
Pepck2 [DRSC06013] → z-score, replicate 1: -0.2; z-score, replicate 2: -0.5
CG9372 [DRSC11068] → z-score, replicate 1: 0; z-score, replicate 2: 0
ND-B14.5AL [DRSC11795] → z-score, replicate 1: -0.2; z-score, replicate 2: -0.4
cid [DRSC05429] → z-score, replicate 1: -0.1; z-score, replicate 2: 0
cid [DRSC07592] → z-score, replicate 1: -0.3; z-score, replicate 2: -0.2
CG13875 [DRSC08345] → z-score, replicate 1: -0.3; z-score, replicate 2: -0.4
GstD5 [DRSC16686] → z-score, replicate 1: -0.3; z-score, replicate 2: -0.2
ncm [DRSC02179] → z-score, replicate 1: 7.9; z-score, replicate 2: 3.8
Ptp52F [DRSC06717] → z-score, replicate 1: -0.4; z-score, replicate 2: 0
ZnT33D [DRSC02591] → z-score, replicate 1: -0.1; z-score, replicate 2: -0.3
CG11504 [DRSC14318] → z-score, replicate 1: -0.3; z-score, replicate 2: -0.2
Adgf-A [DRSC10566] → z-score, replicate 1: -0.3; z-score, replicate 2: -0.7
Mayo [DRSC14300] → z-score, replicate 1: -0.3; z-score, replicate 2: -0.2
rnh1 [DRSC07673] → z-score, replicate 1: 0; z-score, replicate 2: 0.4
eIF4EHP [DRSC13653] → z-score, replicate 1: -0.5; z-score, replicate 2: -0.5
eIF4EHP [DRSC14265] → z-score, replicate 1: -0.4; z-score, replicate 2: -0.7
CG14837 [DRSC10207] → z-score, replicate 1: -0.4; z-score, replicate 2: -0.9
Klp68D [DRSC11206] → z-score, replicate 1: -0.2; z-score, replicate 2: -0.5
PRL-1 [DRSC03393] → z-score, replicate 1: -0.3; z-score, replicate 2: 0.3
Ask1 [DRSC16789] → z-score, replicate 1: -1.2; z-score, replicate 2: -0.8
Cyp4ac1 [DRSC03302] → z-score, replicate 1: -0.3; z-score, replicate 2: -0.5
CG34040 [DRSC03902] → z-score, replicate 1: -0.1; z-score, replicate 2: 0.2
CheB53b [DRSC05613] → z-score, replicate 1: -0.1; z-score, replicate 2: -0.3
CG15499 (retired record) [DRSC15041] → z-score, replicate 1: -0.1; z-score, replicate 2: -0.8
CecC [DRSC16606] → z-score, replicate 1: -0.1; z-score, replicate 2: 0.6
Pld3 [DRSC03167] → z-score, replicate 1: -0.2; z-score, replicate 2: -0.7
ndl [DRSC11374] → z-score, replicate 1: -0.2; z-score, replicate 2: -0.5
CG33523 [DRSC09814] → z-score, replicate 1: -0.4; z-score, replicate 2: 0.4
CG6791 [DRSC16118] → z-score, replicate 1: -0.2; z-score, replicate 2: -0.5
Myc [DRSC18762] → z-score, replicate 1: 4.7; z-score, replicate 2: 2.8
tou [DRSC06006] → z-score, replicate 1: -0.4; z-score, replicate 2: -0.8
Mkrn1 [DRSC11870] → z-score, replicate 1: -0.3; z-score, replicate 2: -0.2
GCC88 [DRSC14264] → z-score, replicate 1: -0.3; z-score, replicate 2: -0.6
lok [DRSC03567] → z-score, replicate 1: -0.2; z-score, replicate 2: -0.1
PolD3 [DRSC01961] → z-score, replicate 1: -0.2; z-score, replicate 2: -0.5
CG12699 [DRSC06162] → z-score, replicate 1: -0.4; z-score, replicate 2: -0.5
RIOK2 [DRSC14413] → z-score, replicate 1: 0.3; z-score, replicate 2: -0.2
SmD3 [DRSC07553] → z-score, replicate 1: 5.8; z-score, replicate 2: 3.9

Quoted from the entries so far for reference:
CG13875 [DRSC08345] → z-score, replicate 1: -0.3; z-score, replicate 2: -0.4
GstD5 [DRSC16686] → z-score, replicate 1: -0.3; z-score, replicate 2: -0.2
ncm [DRSC02179] → z-score, replicate 1: 7.9; z-score, replicate 2: 3.8
Ptp52F [DRSC06717] → z-score, replicate 1: -0.4; z-score, replicate 2: 0
ZnT33D [DRSC02591] → z-score, replicate 1: -0.1; z-score, replicate 2: -0.3
